Assay [1] has as its target HA-tagged WNV-Cp (pcDNA3-HA/WNV-Cp) (West Nile virus) (UniProt P06935). Put plainly: co-immunoprecipitation from cotransfected 293T cells (legend of FIG. 7).
For assay [2] the target is unchanged. Put plainly: co-immunoprecipitation from cotransfected 293T cells: IP with anti-HA, blot with anti-Flag.

Sequences of proteins named here, by UniProt entry; tags and fusion partners are left off. A change or cut given only in a name is not applied to a line headed by its entry. Residues count along the entry.
UniProt P06935, residues 1-123: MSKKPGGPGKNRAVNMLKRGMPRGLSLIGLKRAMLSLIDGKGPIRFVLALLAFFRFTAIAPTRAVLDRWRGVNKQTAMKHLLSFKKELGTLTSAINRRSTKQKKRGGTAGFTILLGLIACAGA
UniProt O35864: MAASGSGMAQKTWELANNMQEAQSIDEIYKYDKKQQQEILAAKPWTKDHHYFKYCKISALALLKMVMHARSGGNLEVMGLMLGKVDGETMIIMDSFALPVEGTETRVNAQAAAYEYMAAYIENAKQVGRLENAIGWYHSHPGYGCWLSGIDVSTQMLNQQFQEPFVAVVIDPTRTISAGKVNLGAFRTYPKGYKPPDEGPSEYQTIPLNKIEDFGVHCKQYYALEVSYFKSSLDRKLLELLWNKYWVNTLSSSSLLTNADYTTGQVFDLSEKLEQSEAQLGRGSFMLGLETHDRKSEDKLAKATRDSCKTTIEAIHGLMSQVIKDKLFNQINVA

Consider 1 substance from US20080095742A1.

No constants are given. Whether binding was seen depends on the method and setting. In cells and extracts the contact can be indirect. Some entries that bind do so weakly or less than the wild type.

Take “Flag-tagged Jab1 (pCMV Tag2B-Jab1) (from UniProt O35864 1-334)”: the binding entry in assay [1] and in assay [2] was “binds” in each case.
